The full ranking holds about 33,000 sequences; the median of “E-score (-0.5 to 0.5)” is about -0.0034, and the highest 2% start at about 0.25. The list shows a part of the results.
These sequences were tested against T1, Yap3 (UniProt P38749) (assay: PBM E-score (8-mer binding enrichment) (E-score (-0.5 to 0.5)); higher = stronger / more preferred TF binding). Settings: protein concentration: 100 nM; construct: GST-full length.
T1 sequence: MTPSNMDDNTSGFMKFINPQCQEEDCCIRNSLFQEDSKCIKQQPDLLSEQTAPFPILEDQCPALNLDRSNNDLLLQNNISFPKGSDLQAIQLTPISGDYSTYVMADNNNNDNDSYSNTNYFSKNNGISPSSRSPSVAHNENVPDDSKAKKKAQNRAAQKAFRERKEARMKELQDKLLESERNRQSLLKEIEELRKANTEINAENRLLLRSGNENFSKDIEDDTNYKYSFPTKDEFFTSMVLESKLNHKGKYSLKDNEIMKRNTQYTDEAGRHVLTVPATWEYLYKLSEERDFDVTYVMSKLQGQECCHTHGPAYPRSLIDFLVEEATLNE
Method in brief: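 Full-length yeast transcription factors or their DNA-binding domains, GST-tagged and expressed with PURExpress, were applied at about 100-200 nM to universal all-10-mer Agilent arrays. These arrays had been made double-stranded by primer extension on fresh or once-stripped slides. Detection used fluorescent anti-GST, normalisation used masliner, and E-scores for ungapped eight-base words pooled with reverse complements came from the Universal PBM Analysis Suite.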

Sequence	PBM E-score
ATCGGATC	-0.0465
GCATATCC	-0.0566
CGTCCAGA	-0.223
GAAGCACC	-0.106
ATCTTGCA	0.151
CCGGACAC	-0.258
GACTACTC	-0.0706
CCGTGCAG	-0.0597
AATTGCGT	0.0658
CATAATAA	0.105
AGATACTG	0.0179
ACTCTCAC	0.0422
AATGACGA	0.164
CCTTGTCA	-0.0646
AGCGCTCA	-0.151
AAATGTGA	0.148
CCTGAATA	0.121
CACACAGC	-0.0551
AATATTGC	0.202
AGAGCAGA	0.0395
CGCGCACC	-0.0218
ATATGTAC	0.137
CGAATTCG	-0.0646
GAACGCGA	0.136
ATAGAAAA	0.217

Sequence	PBM E-score
AAGCCGCT	0.00103
AGACGGAT	0.16
CAGAGGCA	-0.0254
ACCGTATA	0.042
GCTCAAGC	-0.156
CACGTGGG	-0.143
AGAAAATA	0.208
CCCGGTCC	-0.272
TTAAGAAA	0.0138
AAAAATAA	0.25
CCGTAGAA	-0.139
ACCGCGAC	0.0742
AAGCTTGC	-0.158
GGACGCTA	-0.25
GGCCCATA	-0.0975
ACAGCGAC	-0.129
AGGTAGAG	-0.0672
CGGCAGTA	0.00023
ATTCCCGG	0.161
CCTAAGAG	-0.145
ACTTGGGC	-0.119
AGAGAACC	-0.235
TGGCCCCA	-0.322
TCCCAGGA	-0.252
GATAGAAA	0.187

Sequence	PBM E-score
CCGATCGA	-0.0505
AGTCACGC	-0.108
CTAGATAG	-0.0252
ATACGGAA	0.185
ACCTGCCT	-0.103
AAATCTTC	-0.0255
GAATTCCA	0.195
AGGCAGAG	-0.0771
AACTATTC	0.125
TGTGGAAA	0.202
ATCTTTTC	0.102
ACTCCACC	0.0133
GGTGGTCA	-0.121
ACATAGCC	0.0395
AGAGAACA	0.206
AGGAGCCG	-0.331
CCCTATTC	0.00103
ATTCCCGC	0.126
CCCGCTGA	-0.219
GTATCAAA	0.187
CCTTGGCA	-0.247
CCCATAGG	-0.2
CACATTCC	0.051
AAGGGGCC	-0.211
CTGGCCAA	-0.0217

Sequence	PBM E-score
CGGCTATC	-0.105
ACTTAAAA	0.0505
ATGCGCGC	0.144
GTTATCGA	0.0176
ACGGTTGC	-0.0961
CAAGCGTA	-0.121
AGTTATTG	0.0615
CACCTCGC	-0.0346
ACGGGAGT	0.0215
AAGCCCTA	-0.149
CTTAACAC	0.114
CCCTGCAA	-0.192
ATTCTGTA	0.0245
AGAAGTAA	0.192
CGACACCC	-0.109
ACCCGCTA	-0.0496
CGCATCTA	0.208
CATGTCCC	0.0139
AAATTATG	0.208
GAGGTACC	-0.143
CTGCCATC	0.00415
AAGTGGTC	-0.0555
AGCGGATC	-0.0553
AGTTTGGG	0.211
AATGATGC	0.0306

Look-ups from the list:
For PBM E-score, AAGGGGCC shows -0.211
For PBM E-score, CATAATAA shows 0.105
For PBM E-score, CACATTCC shows 0.051
For PBM E-score, ATCTTGCA shows 0.151

(further entries)

Sequence	PBM E-score
AGCAAAAC	0.0939
AATCAGTG	-0.0532
TGCAATAA	0.272
GATCAGCC	-0.225
CCGTTAAG	-0.119
AACGTGAC	0.0815
CGGATTGA	0.0308
CGGTAGAA	-0.193
ATTGACGG	-0.0446
CGGAGGTA	-0.106
GGCGCGCA	0.0341
TCCTGCGA	-0.0222
ATGCTTTA	0.075
CTCGAGTA	0.165
CTTGTAAC	0.215
AGGTTACG	0.0423
AGAGGTCG	-0.14
AGCTTTTC	-0.0588
ACTCGAGA	0.0653
CAGGGGCC	-0.327
GCGGGCAC	-0.0624
CTATAAGA	0.182
ACCACCAG	-0.111
GCCCTTAC	-0.14
CTTCCAGC	-0.203

Sequence	PBM E-score
TCGAAACA	0.226
CTCCTCAG	-0.218
GTCATCGA	-0.0869
TCCGTCGA	0.12
CAGTTTAA	-0.0438
ACCTGGGA	0.145
AATACTTA	0.113
TACGAGGA	0.0459
CCGCAGTA	-0.154
ACATTAGT	0.0888
GTAAGCAA	0.27
ATTTCAGC	-0.118
CTGACATC	-0.00129
CTTTTGGC	0.0304
AATGCAAC	0.104
ATACTTAA	0.177
TAATTCGA	0.103
ATGTGGGG	-0.18
AGCTGTAG	-0.0431
AATGACTA	0.201
AAGATGAT	0.0727
CGACCGCA	-0.114
ACTATAAG	0.136
GAGGTGGC	-0.136
GCCCCCAA	-0.168

Another view of part of the listing above:
ACATTAGT
  PBM E-score: 0.0888
GTAAGCAA
  PBM E-score: 0.27
ATTTCAGC
  PBM E-score: -0.118
CTGACATC
  PBM E-score: -0.00129

Remaining list, next part.

Sequence	PBM E-score
ACATTGGT	0.0185
GGTAGAAC	-0.107
AATCGACT	-0.0232
CTAGGAGC	-0.254
CAATAGCC	-0.0706
CAAAGAGG	0.0523
GATTCATA	0.116
GACACGAC	0.217
ACGTGACT	-0.132
CCTCGCTC	0.0543
TGGTTCAA	0.0744
CCTAGCAA	0.00301
CGTGCCTC	-0.141
TAAGGACA	0.0825
GCACTTAC	0.0227
GAACTGAA	0.153
AGTCCGGC	-0.0711
ATCATATA	0.206
CCACAATC	0.0271
CTCCTATA	-0.191
CTGACACC	-0.174
ACAATGCT	-0.0138

From the supplement of paper PMC3334620
